Test results from patent US20110306554A1, “PEPTIDE CAPABLE OF BINDING TO IMMUNOGLOBULIN” (priority 2009, published 2011).
Not every detail of the peptide structures is certain; ends, links or a residue may be inferred. Some entries share one result that the patent states for a list of compounds. Non-standard residues stand in square brackets, D forms with d. Residues, ends and D or L forms follow the SMILES beside them.

How the values were obtained:
[1] = tested on: Monoclonal antibody cocktail-induced arthritis mice; assay: Arthritis suppressing effects on arthritis-induced mice, Part 3; format: in vivo; conditions: 10 mg/kg intraperitoneally once a day from day 4, 10 days
Experimental: Monoclonal antibody cocktail-induced arthritis mice were used to examine arthritis suppressing effects of peptides which are indicated as R13 and R17 in the section (3) in Example 2. Arthritis was caused by intravenous administration of 2 mg/mouse of an arthritis-inducing monoclonal antibody cocktail and three days later, intraperitoneal administration of 50 μg/mouse of LPS. The peptides were given via intraperitoneal or intravenous administration at a dose of 10 mg/kg once a day for a period of 10 consecutive days from four days after the administration of the arthritis-inducing monoclonal antibody cocktail, and arthritis suppressing effect was examined in terms of clinical score and hind-limb volume determination.
The required amount was calculated for each peptide, based on the animal weight. Each peptide solution was prepared using physiological saline (at 0.1 mg/ml for R1, 1 mg/ml for R2, and 1 or 10 mg/ml for R13 and R17), and cold stored. […]
Results of examinations were expressed by mean value±standard error and analyzed using EXSAS (Version 7.1.6, Arm Systex Co., Ltd.). […] Quantitative data, such as body weights and leg volumes, were subjected to Bartlett's test, followed by Dunnett's multiple comparison test when the variance was uniform or Steel's multiple comparison test when the variance was not uniform.

[2] = tested on: binding between human C1q protein and human immunoglobulin (IgG); assay: Inhibition of binding between C1q and immunoglobulin (C1q spotted on nitrocellulose membrane, ALP-labeled IgG); conditions: peptide concentration 500 μg/ml, 400 ng human C1q per spot
Source text: Peptides were synthesized by GL Biochem (Shanghai), which have the following amino acid sequences: the amino acid sequence depicted in SEQ ID NO: 2 (peptide R2); a shorter amino acid sequence than this peptide, PGLYYF (SEQ ID NO: 1) (peptide R1); and amino acid sequences including the amino acid sequence depicted in SEQ ID NO: 2, SGKFTCKVPGLYYFT (SEQ ID NO: 3) (peptide R3), FTCKVPGLYYFTYHA (SEQ ID NO: 4) (peptide R4), STGKFTCKVPGLYYF (SEQ ID NO: 5) (peptide R5), and CKVPGLYYFVYHASH (SEQ ID NO: 7) (peptide R6). Each peptide was dissolved in DMSO to make a concentration of 10 mg/ml and stored.
Human C1q protein (Carbiochem) was dissolved in 10 mM HEPES, 300 mM NaCl, 40% glycerol (pH 7.2) to prepare a 200 μg/ml solution of human C1q protein. The solution of human C1q protein was spotted at a volume of 2 μl (400 ng) per spot onto a nitrocellulose membrane of a size of 5 mm by 15 mm (Hybond C; Amersham), which was then air-dried at room temperature for about one hour. The nitrocellulose membrane was soaked in TBS, incubated for 5 minutes, and blocked at room temperature for one hour using TBS (20 mM Tris-HCl, pH 7.5, 150 mM NaCl) containing 5% of a blocking agent (Amersham ECL blocking reagent; GE Healthcare). After washing lightly in TBS, the membrane was soaked in 20 μl of a solution of alkaline phosphatase (ALP)-labeled human immunoglobulin (IgG) (BECKMAN COULTER) diluted 1000-fold with TBS, which was mixed with each peptide solution to make a peptide concentration of 500 μg/ml, and subjected to reaction at room temperature for one hour. After washing lightly in a TTBS solution (TBS to which Tween 20 was added to the final concentration of 0.05%), the membrane was washed in the same solution three times for 10 minutes each, with shaking.
After the nitrocellulose membrane was washed lightly in a color development buffer for ALP (Tris-HCl containing 100 mM NaCl, 5 mM MgCl2, pH 9.5), the membrane was soaked in 30 μl of the color development buffer for ALP containing a BCIP/NBT solution (Promega), and subjected to color development at room temperature for 10 minutes. When color developments were achieved, the nitrocellulose membrane was soaked in a sufficient volume of distilled water to wash away the color development buffer. After washing, the nitrocellulose membrane was air-dried and the color developments were captured using a Multi Gauge (FUJIFILM).
The peptides listed in Table 3 were synthesized by GL Biochem (Shanghai). Each peptide was dissolved in DMSO to make a concentration of 10 mg/ml and stored. Experiments were carried out in a similar way to those in the section Examination of inhibitory activity (1) in Example 2, and peptides R1, R2, and R5 were also subjected to experiments as controls.
The peptides listed in Table 4 were synthesized by GL Biochem (Shanghai). For these peptides, peptide stability was improved by substituting a specific amino acid residue by the corresponding D-amino acid, or by substituting a cysteine residue in the amino acid sequence by a serine residue. That is, these peptides were designed to have prolonged half-lives and maintain their therapeutic or prophylactic effects within the body of subjects for extended periods. Each peptide was dissolved in DMSO to make a concentration of 10 mg/ml and stored. Experiments were carried out in a similar way to those in the section Examination of inhibitory activity (1) in Example 2, and peptides R1, R2, and R5 were used as controls.
The peptides listed in Table 5 were synthesized by GL Biochem (Shanghai). In the case of these peptides, peptide stability was improved both by substituting an amino acid residue by the corresponding D-amino acid and by substituting a cysteine residue in the amino acid sequence by a serine residue. That is, these peptides were designed to have prolonged half-lives and maintain their therapeutic or prophylactic effects within the body of subjects for extended periods. […]

CC(C)C[C@@H](NC(=O)CNC(=O)[C@H]1CCCN1)C(=O)N[C@H](Cc1ccc(O)cc1)C(=O)N[C@H](Cc1ccc(O)cc1)C(=O)N[C@H](Cc1ccccc1)C(=O)O [R13, dPGdLdYdYdF] (H-[dP]G[dL][dY][dY][dF]-OH)
arthritis-suppressing effect (clinical score) [1]: arthritis-suppressing effects comparable to those of the groups receiving administration of R1 (intravenously) or R2 (intraperitoneally)
inhibition of the binding between C1q and immunoglobulin [2]: inhibited the binding
